Measurements from article PMC10233381.
These are yes or no findings as the source states them, for the method shown. In cells and extracts the contact can be indirect. These calls come from enrichment with a bait or labelling near it, and not all partners need be listed.

Chains of the proteins cited; added tags and fusions are not shown.
UniProt Q80U78: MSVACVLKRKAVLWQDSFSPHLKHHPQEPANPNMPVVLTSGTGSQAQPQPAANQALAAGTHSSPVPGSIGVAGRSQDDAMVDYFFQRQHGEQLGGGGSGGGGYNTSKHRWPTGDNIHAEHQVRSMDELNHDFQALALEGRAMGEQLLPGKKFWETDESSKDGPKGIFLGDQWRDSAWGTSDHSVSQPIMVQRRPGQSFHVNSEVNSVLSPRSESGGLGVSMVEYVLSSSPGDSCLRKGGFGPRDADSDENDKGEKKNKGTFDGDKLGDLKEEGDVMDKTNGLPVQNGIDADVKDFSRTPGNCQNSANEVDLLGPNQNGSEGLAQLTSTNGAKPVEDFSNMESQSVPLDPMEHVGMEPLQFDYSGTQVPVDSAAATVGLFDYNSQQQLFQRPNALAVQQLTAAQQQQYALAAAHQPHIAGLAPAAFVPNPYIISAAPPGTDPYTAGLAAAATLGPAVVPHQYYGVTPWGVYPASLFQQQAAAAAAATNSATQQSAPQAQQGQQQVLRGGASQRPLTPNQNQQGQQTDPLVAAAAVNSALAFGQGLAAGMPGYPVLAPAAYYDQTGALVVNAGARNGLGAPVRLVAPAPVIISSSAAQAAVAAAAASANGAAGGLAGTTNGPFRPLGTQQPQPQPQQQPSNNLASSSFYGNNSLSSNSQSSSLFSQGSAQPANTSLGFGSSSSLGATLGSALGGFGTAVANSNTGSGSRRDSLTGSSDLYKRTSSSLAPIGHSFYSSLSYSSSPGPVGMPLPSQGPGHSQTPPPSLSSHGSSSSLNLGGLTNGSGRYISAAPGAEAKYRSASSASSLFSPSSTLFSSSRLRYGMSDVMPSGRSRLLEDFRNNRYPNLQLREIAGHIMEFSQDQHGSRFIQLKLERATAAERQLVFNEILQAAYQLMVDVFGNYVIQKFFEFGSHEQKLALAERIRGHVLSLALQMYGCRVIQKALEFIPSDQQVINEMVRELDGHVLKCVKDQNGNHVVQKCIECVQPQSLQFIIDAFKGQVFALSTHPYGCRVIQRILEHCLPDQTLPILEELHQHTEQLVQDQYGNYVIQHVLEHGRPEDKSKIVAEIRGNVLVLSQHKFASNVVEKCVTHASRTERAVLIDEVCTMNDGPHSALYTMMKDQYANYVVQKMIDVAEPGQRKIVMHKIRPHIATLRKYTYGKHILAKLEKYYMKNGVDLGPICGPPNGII
UniProt Q6ZQ08: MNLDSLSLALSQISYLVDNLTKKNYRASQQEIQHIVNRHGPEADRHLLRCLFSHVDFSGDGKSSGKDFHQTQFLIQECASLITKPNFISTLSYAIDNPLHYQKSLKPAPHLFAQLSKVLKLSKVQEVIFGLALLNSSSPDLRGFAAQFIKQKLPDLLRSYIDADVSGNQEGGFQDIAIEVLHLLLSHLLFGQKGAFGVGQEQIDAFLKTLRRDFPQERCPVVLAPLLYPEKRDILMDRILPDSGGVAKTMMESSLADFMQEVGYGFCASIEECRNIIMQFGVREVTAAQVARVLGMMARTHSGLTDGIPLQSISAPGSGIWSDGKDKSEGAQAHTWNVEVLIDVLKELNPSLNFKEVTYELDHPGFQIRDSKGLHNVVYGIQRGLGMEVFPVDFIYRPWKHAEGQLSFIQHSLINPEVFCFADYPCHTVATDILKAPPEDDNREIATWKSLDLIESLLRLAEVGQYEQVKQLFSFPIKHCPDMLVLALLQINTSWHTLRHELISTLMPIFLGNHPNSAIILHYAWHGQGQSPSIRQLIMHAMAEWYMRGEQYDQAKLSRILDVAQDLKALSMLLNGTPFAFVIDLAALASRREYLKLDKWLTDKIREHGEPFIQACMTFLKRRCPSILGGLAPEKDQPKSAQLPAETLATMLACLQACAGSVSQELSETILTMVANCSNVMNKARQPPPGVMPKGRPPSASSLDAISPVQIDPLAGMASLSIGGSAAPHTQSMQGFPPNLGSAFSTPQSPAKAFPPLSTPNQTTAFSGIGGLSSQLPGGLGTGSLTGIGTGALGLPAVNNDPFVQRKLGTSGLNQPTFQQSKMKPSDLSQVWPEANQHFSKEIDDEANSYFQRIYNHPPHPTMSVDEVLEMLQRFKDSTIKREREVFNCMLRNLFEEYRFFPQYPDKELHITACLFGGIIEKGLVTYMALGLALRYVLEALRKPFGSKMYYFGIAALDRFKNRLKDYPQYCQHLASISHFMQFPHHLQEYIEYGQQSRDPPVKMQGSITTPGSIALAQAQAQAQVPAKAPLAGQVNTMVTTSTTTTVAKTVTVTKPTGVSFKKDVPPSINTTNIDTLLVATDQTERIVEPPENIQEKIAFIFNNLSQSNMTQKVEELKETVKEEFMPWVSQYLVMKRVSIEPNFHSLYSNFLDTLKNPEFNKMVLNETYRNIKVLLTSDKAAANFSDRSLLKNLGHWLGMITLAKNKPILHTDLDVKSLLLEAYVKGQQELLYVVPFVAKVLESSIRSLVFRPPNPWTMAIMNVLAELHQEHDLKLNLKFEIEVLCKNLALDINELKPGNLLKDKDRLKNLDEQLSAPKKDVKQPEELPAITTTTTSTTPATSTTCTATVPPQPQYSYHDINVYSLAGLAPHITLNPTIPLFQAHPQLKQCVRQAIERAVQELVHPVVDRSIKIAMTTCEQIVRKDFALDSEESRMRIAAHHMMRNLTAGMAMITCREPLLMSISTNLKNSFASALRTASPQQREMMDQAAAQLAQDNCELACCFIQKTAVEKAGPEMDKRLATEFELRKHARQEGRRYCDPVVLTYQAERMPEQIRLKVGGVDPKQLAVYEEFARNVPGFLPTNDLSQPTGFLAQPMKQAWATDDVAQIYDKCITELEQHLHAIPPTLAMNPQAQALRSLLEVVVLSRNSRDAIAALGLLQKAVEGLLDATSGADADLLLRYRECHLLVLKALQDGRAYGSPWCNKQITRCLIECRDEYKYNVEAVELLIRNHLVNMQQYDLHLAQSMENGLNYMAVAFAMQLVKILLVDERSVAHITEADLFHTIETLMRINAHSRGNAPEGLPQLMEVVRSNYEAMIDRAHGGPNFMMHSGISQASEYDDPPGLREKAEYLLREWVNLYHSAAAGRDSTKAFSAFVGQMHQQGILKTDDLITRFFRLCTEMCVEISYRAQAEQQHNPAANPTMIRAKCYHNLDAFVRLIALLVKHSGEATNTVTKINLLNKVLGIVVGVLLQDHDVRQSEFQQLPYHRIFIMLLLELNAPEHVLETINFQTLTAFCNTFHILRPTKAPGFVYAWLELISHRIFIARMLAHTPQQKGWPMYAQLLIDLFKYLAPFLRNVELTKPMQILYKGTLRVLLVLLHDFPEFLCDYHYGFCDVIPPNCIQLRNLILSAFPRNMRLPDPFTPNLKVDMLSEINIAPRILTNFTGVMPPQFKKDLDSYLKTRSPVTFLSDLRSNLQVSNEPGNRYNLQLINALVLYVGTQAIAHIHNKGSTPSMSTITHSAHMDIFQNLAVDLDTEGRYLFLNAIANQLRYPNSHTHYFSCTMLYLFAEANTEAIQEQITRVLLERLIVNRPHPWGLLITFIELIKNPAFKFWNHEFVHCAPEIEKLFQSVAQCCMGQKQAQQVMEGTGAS
UniProt Q8K4Q0: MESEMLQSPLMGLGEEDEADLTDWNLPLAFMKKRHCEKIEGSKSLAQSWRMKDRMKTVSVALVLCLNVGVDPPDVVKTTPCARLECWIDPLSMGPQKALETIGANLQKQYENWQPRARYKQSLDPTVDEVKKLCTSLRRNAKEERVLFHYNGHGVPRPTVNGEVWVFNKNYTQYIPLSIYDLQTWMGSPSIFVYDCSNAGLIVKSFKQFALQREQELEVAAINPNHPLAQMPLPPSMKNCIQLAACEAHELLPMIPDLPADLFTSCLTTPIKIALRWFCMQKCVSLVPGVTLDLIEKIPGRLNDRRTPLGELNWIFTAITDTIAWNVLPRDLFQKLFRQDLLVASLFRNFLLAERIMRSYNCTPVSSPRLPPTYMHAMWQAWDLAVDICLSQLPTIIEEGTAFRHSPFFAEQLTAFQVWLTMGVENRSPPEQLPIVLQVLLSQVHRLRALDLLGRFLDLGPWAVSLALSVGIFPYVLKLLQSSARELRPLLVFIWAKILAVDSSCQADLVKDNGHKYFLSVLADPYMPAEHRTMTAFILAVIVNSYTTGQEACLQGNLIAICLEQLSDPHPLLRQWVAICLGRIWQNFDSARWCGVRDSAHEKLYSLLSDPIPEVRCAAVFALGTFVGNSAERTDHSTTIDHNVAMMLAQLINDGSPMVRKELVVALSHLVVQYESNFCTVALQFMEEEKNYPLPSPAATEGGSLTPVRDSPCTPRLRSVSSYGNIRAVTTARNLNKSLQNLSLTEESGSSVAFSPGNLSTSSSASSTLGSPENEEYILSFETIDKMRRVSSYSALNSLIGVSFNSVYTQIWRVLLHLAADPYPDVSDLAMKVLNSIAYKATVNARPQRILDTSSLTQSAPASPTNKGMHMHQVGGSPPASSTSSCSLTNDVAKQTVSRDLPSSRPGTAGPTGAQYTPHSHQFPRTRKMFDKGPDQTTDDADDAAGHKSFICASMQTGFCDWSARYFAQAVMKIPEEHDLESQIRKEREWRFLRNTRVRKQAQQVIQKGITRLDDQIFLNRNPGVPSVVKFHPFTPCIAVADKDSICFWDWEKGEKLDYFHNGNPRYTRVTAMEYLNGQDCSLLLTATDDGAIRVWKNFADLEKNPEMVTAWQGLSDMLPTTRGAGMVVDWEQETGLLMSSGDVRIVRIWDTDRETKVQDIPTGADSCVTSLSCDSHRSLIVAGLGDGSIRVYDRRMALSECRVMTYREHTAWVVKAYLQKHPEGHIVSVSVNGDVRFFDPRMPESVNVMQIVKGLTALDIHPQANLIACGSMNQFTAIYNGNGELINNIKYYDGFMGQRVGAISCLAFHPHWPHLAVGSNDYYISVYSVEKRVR
UniProt Q8CJG0: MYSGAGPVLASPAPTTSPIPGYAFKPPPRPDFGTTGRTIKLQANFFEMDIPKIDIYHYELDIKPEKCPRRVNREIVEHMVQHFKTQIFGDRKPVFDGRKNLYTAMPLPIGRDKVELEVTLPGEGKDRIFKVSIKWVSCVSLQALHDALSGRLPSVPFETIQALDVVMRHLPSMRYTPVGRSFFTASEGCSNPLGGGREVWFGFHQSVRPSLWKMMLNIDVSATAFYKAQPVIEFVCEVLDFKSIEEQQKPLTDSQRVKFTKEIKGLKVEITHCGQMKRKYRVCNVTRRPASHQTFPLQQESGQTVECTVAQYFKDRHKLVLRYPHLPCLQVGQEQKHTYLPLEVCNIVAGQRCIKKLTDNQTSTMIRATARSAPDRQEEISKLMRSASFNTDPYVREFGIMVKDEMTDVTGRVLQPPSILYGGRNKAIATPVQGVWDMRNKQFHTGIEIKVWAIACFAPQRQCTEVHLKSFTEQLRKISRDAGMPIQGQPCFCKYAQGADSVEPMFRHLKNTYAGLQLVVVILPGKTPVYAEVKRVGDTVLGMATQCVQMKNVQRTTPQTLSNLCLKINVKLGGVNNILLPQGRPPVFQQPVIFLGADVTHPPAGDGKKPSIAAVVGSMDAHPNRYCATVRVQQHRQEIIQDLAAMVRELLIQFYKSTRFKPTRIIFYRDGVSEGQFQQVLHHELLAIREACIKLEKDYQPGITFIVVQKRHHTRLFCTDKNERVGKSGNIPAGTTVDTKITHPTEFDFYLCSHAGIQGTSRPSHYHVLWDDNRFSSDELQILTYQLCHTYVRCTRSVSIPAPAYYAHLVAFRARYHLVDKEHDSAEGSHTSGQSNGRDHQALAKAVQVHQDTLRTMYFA
UniProt Q8BH15: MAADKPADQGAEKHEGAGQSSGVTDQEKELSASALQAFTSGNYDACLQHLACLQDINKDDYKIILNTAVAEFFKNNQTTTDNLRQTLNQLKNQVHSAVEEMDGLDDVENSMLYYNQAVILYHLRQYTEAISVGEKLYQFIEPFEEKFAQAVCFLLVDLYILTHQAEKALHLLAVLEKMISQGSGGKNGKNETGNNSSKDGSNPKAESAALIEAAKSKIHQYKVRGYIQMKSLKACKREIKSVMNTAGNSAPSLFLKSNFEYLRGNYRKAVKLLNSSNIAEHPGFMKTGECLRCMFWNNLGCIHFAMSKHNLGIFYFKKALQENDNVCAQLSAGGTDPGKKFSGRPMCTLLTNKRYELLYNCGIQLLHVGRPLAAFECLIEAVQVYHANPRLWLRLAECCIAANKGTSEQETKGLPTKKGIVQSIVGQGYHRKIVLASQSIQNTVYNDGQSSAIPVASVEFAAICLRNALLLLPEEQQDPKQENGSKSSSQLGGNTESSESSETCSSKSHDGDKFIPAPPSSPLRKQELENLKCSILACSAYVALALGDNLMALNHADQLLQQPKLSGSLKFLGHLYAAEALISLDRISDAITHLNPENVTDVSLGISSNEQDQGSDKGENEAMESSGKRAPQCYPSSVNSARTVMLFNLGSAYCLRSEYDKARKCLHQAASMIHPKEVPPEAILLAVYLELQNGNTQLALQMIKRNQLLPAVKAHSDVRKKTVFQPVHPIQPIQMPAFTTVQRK

B1: Rbfox3 (protein, UniProt Q8BIF2 1-374)
chain: MAQPYPPAQYPPPPQNGIPAEYAPPPPHPTQDYSGQTPVPPEHGMTLYTPAQTHPEQPGTEASTQPIAGTQTVPQADEAAQTDNQQLHPSDPTEKQQPKRLHVSNIPFRFRDPDLRQMFGQFGKILDVEIIFNERGSKGFGFVTFETSSDADRAREKLNGTIVEGRKIEVNNATARVMTNKKPGNPYANGWKLNPVVGTVYGPEFYAVTSFPYPTTGTAVAYRGAHLRGRGRAVYNTFRAAPPPPPIPTYGAALEQTLVKMPVPWAGLAPCPLPPQQTPEPAYPTSPAFPPLSCPFASRVVYQDGFYGAEIYGGYAAYRYAQPAAATAAAYSDSYGRVYAAADPYHHTIGPTATYSIGTMASLCRGGYSRFTPY
B2: Rbfox1 (protein, UniProt Q9JJ43 1-396)
chain: MNCEREQLRGNQEAAAAPDTMAQPYASAQFAPPQNGIPAEYTAPHPHPAPEYTGQTTVPDHTLNLYPPTQTHSEQSADTSAQTVSGTATQTDDAAPTDGQPQTQPSENTESKSQPKRLHVSNIPFRFRDPDLRQMFGQFGKILDVEIIFNERGSKGFGFVTFENSADADRAREKLHGTVVEGRKIEVNNATARVMTNKKTVNPYTNGWKLNPVVGAVYSPDFYAGTVLLCQANQEGSSMYSGPSSLVYTSAMPGFPYPAATAAAAYRGAHLRGRGRTVYNTFRAAAPPPPIPAYGGVVYQDGFYGADIYGGYAAYRYAQPTPATAAAYSDSYGRVYAADPYHHTLAPAPTYGVGAMNAFAPLTDAKTRSHADDVGLVLSSLQASIYRGGYNRFAPY
B3: Rbfox2 (protein, UniProt Q8BP71 1-449)
chain: MAEGGQAQQQPPQLGPGAAARGMKRESEVELPVPGAGADGPEPGLSKRPRTEEAADGGMQNEPLTPGYHGFPARDGQGNQEPTTTPDAMVQPFTTIPFPPPPQNGIPTEYGVPHTQDYAGQTSEHNLTLYGSTQPHGEQSSNSPSNQNGSLTQTEGGAQTDGQQSQTQSSENSESKSTPKRLHVSNIPFRFRDPDLRQMFGQFGKILDVEIIFNERGSKGFGFVTFENSADADRAREKLHGTVVEGRKIEVNNATARVMTNKKMVTPYANGWKLSPVVGAVYGPELYAASSFQADVSLGNEAAVPLSGRGGINTYIPLISLPLVPGFPYPTAATTAAAFRGAHLRGRGRTVYGAVRAVPPTAIPAYPGVVYQDGFYGADLYGGYAAYRYAQPATATAATAAAAAAAAYSDGYGRVYTADPYHALAPAASYGVGAVASLYRGGYSRFAPY

biological target: Pumilio1 (Pum1) (mouse (endogenous in brain)) (UniProt Q80U78); assay: affinity purification with mass spectrometry; IP against endogenous Pum1 (goat anti-PUM1, Dynabeads Protein G) from lysates of 10-week-old wild-type mouse whole brain, cerebellum, hippocampus and cortex; lysis and wash buffer 200 mM NaCl2, 100 mM NaPO4, 20 mM Hepes pH 7.4, 1% Triton X; IP against IgG as negative control; LC-MS/MS

binding, binds:
B1
B2
B3

biological target: Pumilio1 (Pum1) (mouse (endogenous in brain)) (UniProt Q80U78); assay: as above; remark: another data set of the same source

binding, binds:
Cad (from UniProt B2RQC6 1-2225)
Fzr1 (from UniProt Q9R1K5 1-493)
Cnot1 (from UniProt Q6ZQ08 1-2375)
Cnot2 (from UniProt Q8C5L3 1-540)
Rptor (from UniProt Q8K4Q0 1-1335)
Anapc1 (from UniProt P53995 1-1944)
Ago2 (from UniProt Q8CJG0 1-860)
Pum2 (from UniProt Q80U58 1-1066)
Cnot10 (from UniProt Q8BH15 1-744)
Eif3b (from UniProt Q8JZQ9 1-803)
